Measurements reported in PubChem BioAssay AID1053208 (Peter MacCallum Cancer Centre, 2014)
Test: 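Genes whose silencing cuts survival of bone tumour cells only with doxorubicin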 (primary screen). Cells: mouse osteosarcoma cells, early-passage culture from an engineered mouse model of fibroblastic bone tumour. Reagents: siRNA pool against mouse genes, 40 nM. Timing: about 120 h (48 h before drug, then 72 h with drug). Conditions: doxorubicin 100 nM for 72 h, roughly 30-40% inhibitory dose. Read-out: 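Luminescent ATP signal taken as viability with or without 100 nM doxorubicin for 72 h; mean of two wells set against non-targeting siRNA and turned into robust z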. Reading the numbers: viability z-score with doxorubicin: higher = more viable cells under doxorubicin; viability z-score without drug: higher = more viable cells with knock-down alone. Rule for the call: 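a pool counts as active when its viability z-score with doxorubicin is -2 or below and its z-score without drug lies between -2 and 2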.
Shown is a random part of about 17,000 reagents tested. Of all reagents, 788 (4.7%) are marked active. 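Calls rest on z-score classes alone; an extra cut-off of viability at most 70% of control was not applied to them.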 Further read-outs or replicates are left out here. No sequences are given here.

| gene knocked down | combined z-score class | viability z-score with doxorubicin | viability z-score without drug | Outcome |
| --- | --- | --- | --- | --- |
| Atp6v1a (ATPase, H+ transporting, lysosomal V1 subunit A) | no change with or without drug | 0.45 | 0 | inactive |
| Or1f19 (olfactory receptor family 1 subfamily F member 19) | no change with or without drug | -1.8 | -1.52 | inactive |
| Chac2 (ChaC, cation transport regulator 2) | no change with or without drug | 0.56 | 0.51 | inactive |
| Chp1 (calcineurin-like EF hand protein 1) | no change with or without drug | 0 | 0 | inactive |
| Slc60a2c | no change with or without drug | -1.57 | -0.34 | inactive |
| Mrgpra3 (MAS-related GPR, member A3) | no change with or without drug | -0.9 | -1.18 | inactive |
| Myl3 (myosin, light polypeptide 3) | no change with or without drug | 1.35 | 0.34 | inactive |
| Tbrg4 (transforming growth factor beta regulated gene 4) | no change with or without drug | -0.22 | -0.51 | inactive |
| Gcg (glucagon) | no change with or without drug | -0.9 | 0.17 | inactive |
| Med8 (mediator complex subunit 8) | low cell count with doxorubicin only | -3.37 | -0.17 | active |
| Scube2 (signal peptide, CUB domain, EGF-like 2) | no change with or without drug | -1.57 | -0.84 | inactive |
| Mex3b (mex3 RNA binding family member B) | no change with or without drug | -0.11 | 0.51 | inactive |
| Adamtsl1 (ADAMTS-like 1) | no change with or without drug | -0.9 | 0.67 | inactive |
| Ift74 (intraflagellar transport 74) | no change with or without drug | -0.9 | -0.84 | inactive |
| Ctps1 (cytidine 5'-triphosphate synthase 1) | no change with or without drug | 1.01 | 0.17 | inactive |
| Or13l2 (olfactory receptor family 13 subfamily L member 2) | no change with or without drug | 1.46 | -1.85 | inactive |
| Tmem150c (transmembrane protein 150C) | no change with or without drug | 0.34 | 1.52 | inactive |
| Jtb (jumping translocation breakpoint) | no change with or without drug | -0.45 | 0.51 | inactive |
| Slc25a30 | no change with or without drug | 1.35 | -0.34 | inactive |
| Mtg1 (mitochondrial ribosome-associated GTPase 1) | no change with or without drug | 1.35 | 1.18 | inactive |
| Nmnat2 (nicotinamide nucleotide adenylyltransferase 2) | no change with or without drug | -0.34 | 0 | inactive |
| Hdac3 (histone deacetylase 3) | no change with or without drug | -0.9 | -0.51 | inactive |
| Htr1a (5-hydroxytryptamine (serotonin) receptor 1A) | no change with or without drug | 1.35 | 0.34 | inactive |
| Or3a4 (olfactory receptor family 3 subfamily A member 4) | no change with or without drug | 0.34 | 0.51 | inactive |
| Lbh (limb-bud and heart) | no change with or without drug | -0.22 | 1.18 | inactive |
| Pcdh11x (protocadherin 11 X-linked) | no change with or without drug | 1.01 | 0.17 | inactive |
| Rdh10 (retinol dehydrogenase 10 (all-trans)) | no change with or without drug | -0.9 | -0.17 | inactive |
| Nudt19 (nudix hydrolase 19) | no change with or without drug | 1.69 | 0.17 | inactive |
| Serinc3 (serine incorporator 3) | no change with or without drug | -0.22 | -0.17 | inactive |
| Hspd1 (heat shock protein 1 (chaperonin)) | no change with or without drug | 1.35 | -0.34 | inactive |
| Ube2s (ubiquitin-conjugating enzyme E2S) | high cell count without drug only | 0.67 | 2.19 | inactive |
| H2ac8 (H2A clustered histone 8) | no change with or without drug | 0.9 | 0.84 | inactive |
| Or10aa3 (olfactory receptor family 10 subfamily AA member 3) | no change with or without drug | 0.67 | 0.17 | inactive |
| Tango6 (transport and golgi organization 6) | no change with or without drug | -0.34 | -0.51 | inactive |
| Or5p76 (olfactory receptor family 5 subfamily P member 76) | no change with or without drug | -0.56 | 0 | inactive |
| Kcnj8 (potassium inwardly-rectifying channel, subfamily J, member 8) | no change with or without drug | 0.45 | 0.67 | inactive |
| Polr3f (polymerase (RNA) III (DNA directed) polypeptide F) | no change with or without drug | 1.46 | 0.51 | inactive |
| Arhgef6 (Rac/Cdc42 guanine nucleotide exchange factor 6) | no change with or without drug | -0.79 | 1.18 | inactive |
| Ren1 (renin 1 structural) | no change with or without drug | -0.56 | -0.84 | inactive |
| Gtf2e2 | no change with or without drug | 0.9 | -0.67 | inactive |
| Epb41l5 (erythrocyte membrane protein band 4.1 like 5) | no change with or without drug | 0.79 | -0.51 | inactive |
| Or51d1 (olfactory receptor family 51 subfamily D member 1) | no change with or without drug | 1.57 | -0.17 | inactive |
| Usp38 (ubiquitin specific peptidase 38) | no change with or without drug | 1.12 | 0.51 | inactive |
| Hdc (histidine decarboxylase) | no change with or without drug | 0 | 0.17 | inactive |
| Klrb1a (killer cell lectin-like receptor subfamily B member 1A) | no change with or without drug | -1.35 | -1.35 | inactive |
| Fgl2 (fibrinogen-like protein 2) | no change with or without drug | -1.12 | 0 | inactive |
| Gpbar1 (G protein-coupled bile acid receptor 1) | no change with or without drug | 0.22 | -1.52 | inactive |
| Fbxo41 (F-box protein 41) | no change with or without drug | 0.67 | 1.52 | inactive |
| Glipr1 (GLI pathogenesis related 1) | no change with or without drug | -0.9 | -0.51 | inactive |
| Atad3a (ATPase family, AAA domain containing 3A) | no change with or without drug | -0.79 | -0.51 | inactive |
